# In ChEMBL document CHEMBL4354836, “Heterotrimeric G Proteins as Therapeutic Targets in Drug Discovery” (J Med Chem, 2020):
# Chains of the proteins cited; added tags and fusions are not shown. Residues count along the entry.
# UniProt P59768, 2-71 limits assumed: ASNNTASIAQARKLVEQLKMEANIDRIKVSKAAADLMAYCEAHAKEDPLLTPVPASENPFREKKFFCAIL
# UniProt P62873, 2-340 limits assumed: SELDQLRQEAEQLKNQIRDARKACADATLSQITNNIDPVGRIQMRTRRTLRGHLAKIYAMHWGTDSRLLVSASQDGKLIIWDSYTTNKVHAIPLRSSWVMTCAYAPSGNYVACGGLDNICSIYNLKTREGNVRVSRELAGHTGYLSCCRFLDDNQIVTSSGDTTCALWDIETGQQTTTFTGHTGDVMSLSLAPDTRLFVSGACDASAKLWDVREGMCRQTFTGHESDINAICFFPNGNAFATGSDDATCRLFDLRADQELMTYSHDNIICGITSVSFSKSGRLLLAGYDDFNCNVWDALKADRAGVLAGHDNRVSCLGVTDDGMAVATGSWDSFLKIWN
# Target: Guanine nucleotide-binding protein G(I)/G(S)/G(T) subunit beta-1/gamma-2 (Homo sapiens, UniProt P59768+P62873)
# Test: Inhibition of G-protein beta1gamma2 (unknown origin) by flow cytometry
# Type: protein-complex assay
smiles,measurement,value
COc1cc2c(c(OC)c1OC)-c1ccc(OC)c(=O)cc1C(N)CC2 (stereo unspecified),IC50,5 µM
